Results deposited as PubChem BioAssay AID652243 (Drosophila RNAi Screening Center, 2013)

Screen: 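Knock-downs that decrease or increase androgen receptor reporter signal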 (primary screen)
Cells: Drosophila S2R+ cells
Knock-down reagent: long dsRNA against Drosophila genes
Time to read-out: 72 h (48 h, then 24 h hormone)
Challenge: synthetic androgen R1881 at 10 nM for 24 h
Measurement: 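Per-well raw luminescence of the androgen-driven firefly reporter and of the Renilla control, two replicates each, without normalisation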
Scale: firefly reporter light: higher = more light from androgen-responsive reporter; Renilla control light: higher = more constitutive control signal (cell number, transfection)
Rule for the call: 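Across duplicate plates, a knock-down whose log firefly/Renilla ratio shifted a set fold down or up from the GFP/LacZ control mean was a hit; the downward cut appears as both 1.5 and 3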
Meaning of the calls: active = hit: reporter lowered or raised; inactive = no hit
The screen tested about 24,000 reagents; shown is an unselected part of those that have a named target and a result. In the full data, 246 (1%) are marked active. 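Plates not normalised; calls are printed but the firefly/Renilla ratio behind them is not deposited; fold cut for lowering reported inconsistently.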 Raw values are not corrected between plates. Unmarked entries are inactive. Not given: the amount of reagent.

| Gene | amplicon | firefly reporter light, replicate 1 | firefly reporter light, replicate 2 | Renilla control light, replicate 1 | Renilla control light, replicate 2 |
| --- | --- | --- | --- | --- | --- |
| Taf6 (TBP-associated factor 6) | DRSC11299 | 22719 | 27094 | 2.77e5 | 2.29e5 |
| CG13847 | DRSC23172 | 7.16e5 | 5.38e5 | 1.48e6 | 1.12e6 |
| Cchl (Cytochrome c heme lyase) | DRSC15949 | 87021 | 67043 | 5.61e5 | 5.03e5 |
| CG14252 | DRSC14747 | 1.51e5 | 1.41e5 | 1.79e6 | 1.96e6 |
| LeuRS-m (Leucyl-tRNA synthetase, mitochondrial) | DRSC08595 | 7.83e5 | 1.20e6 | 9.10e5 | 1.04e6 |
| LeuRS-m (Leucyl-tRNA synthetase, mitochondrial) | DRSC28690 | 4.12e5 | 3.94e5 | 1.47e6 | 1.42e6 |
| CG14260 | DRSC14755 | 1.72e5 | 1.47e5 | 2.27e6 | 2.59e6 |
| CG2186 | DRSC19838 | 1.89e5 | 1.35e5 | 8.49e5 | 1.03e6 |
| CG2186 | DRSC25389 | 8.33e5 | 6.52e5 | 6.34e5 | 5.75e5 |
| TotC (Turandot C) | DRSC13449 | 1.05e5 | 1.07e5 | 1.74e5 | 1.47e5 |
| CG34202 | DRSC38630 | 6.89e5 | 7.71e5 | 1.90e6 | 2.11e6 |
| CG5597 | DRSC04517 | 6.10e5 | 4.91e5 | 1.32e6 | 1.14e6 |
| CG42500 | DRSC14822 | 1.54e5 | 1.59e5 | 2.61e6 | 2.81e6 |
| Hsc70-4 (Heat shock protein 70 cognate 4) | DRSC16711 | 2.38e5 | 1.45e5 | 1.69e6 | 1.61e6 |
| Hsc70-4 (Heat shock protein 70 cognate 4) | DRSC29729 | 3.75e5 | 3.13e5 | 1.26e6 | 1.16e6 |
| CG31360 | DRSC13255 | 2.73e5 | 2.33e5 | 5.41e5 | 4.61e5 |
| sbm (sobremesa) | DRSC20185 | 4.37e5 | 4.35e5 | 2.56e6 | 2.25e6 |
| Agpat3 (1-Acylglycerol-3-phosphate O-acyltransferase 3) | DRSC10445 | 43154 | 51371 | 5.64e5 | 4.47e5 |
| amx (almondex) | DRSC23466 | 7.54e5 | 9.43e5 | 8.33e5 | 9.66e5 |
| CG30286 | DRSC04070 | 1.83e5 | 2.92e5 | 1.28e6 | 1.53e6 |
| CG8665 | DRSC03098 | 2.39e5 | 2.24e5 | 1.65e6 | 1.38e6 |
| CG31815 | DRSC01548 | 1.77e5 | 1.27e5 | 5.33e5 | 4.06e5 |
| CG31815 | DRSC29263 | 4.89e5 | 4.21e5 | 1.16e6 | 1.36e6 |
| CG12620 | DRSC02177 | 2.27e5 | 2.13e5 | 1.83e6 | 2.41e6 |
| CG12620 | DRSC24601 | 7.90e5 | 1.16e6 | 8.92e5 | 1.01e6 |

A stretch of the results above, as a working copy:
| Gene | amplicon | firefly reporter light, replicate 1 | firefly reporter light, replicate 2 | Renilla control light, replicate 1 | Renilla control light, replicate 2 |
| --- | --- | --- | --- | --- | --- |
| CG2186 | DRSC25389 | 8.33e5 | 6.52e5 | 6.34e5 | 5.75e5 |
| TotC (Turandot C) | DRSC13449 | 1.05e5 | 1.07e5 | 1.74e5 | 1.47e5 |
| CG34202 | DRSC38630 | 6.89e5 | 7.71e5 | 1.90e6 | 2.11e6 |
